Reference: PMC11079228
These are yes or no findings as the source states them, for the method shown. In cells and extracts the contact can be indirect. Here binding means that the protein was enriched with, or labelled near, the bait; the list need not be complete.

B1: MCM3 (protein, UniProt D3ZFP4 1-813)
chain: MAGTVVLDDVELREAQRDYLDFLDDEEDQGIYQNKVRELISDNQYRLIVNVNDLRRKNEKRANRLLNNAFEELVAFQRALKDFVASIDATYAKQYEEFYIGLEGSFGSKHVSPRTLTSCFLSCVVCVEGIVTKCSLVRPKVVRSVHYCPATKKTIERRYSDLTTLVAFPSSSVYPTKDEENNPLETEYGLSVYKDHQTITIQEMPEKAPAGQLPRSVDVILDDDLVDKVKPGDRIQVVGTYRCLPGKKGGYTSGTFRTVLIACNVKQMSKDIQPAFSADDIAKIKKFSKTRSKDVFEQLARSLAPSIHGHDYVKKAILCLLLGGVERELENGSHIRGDINILLIGDPSVAKSQLLRYVLCTAPRAIPTTGRGSSGVGLTAAVTTDQETGERRLEAGAMVLADRGVVCIDEFDKMSDMDRTAIHEVMEQGRVTIAKAGIHARLNARCSVLAAANPVYGRYDQYKTPMENIGLQDSLLSRFDLLFIMLDQMDPEQDREISDHVLRMHQYRAPGEQDGDALPLGSSVDILATDDPDFTQDDQQDTRIYEKHDNLLHGSKKKREKMVSAAFMKKYIHVAKIIKPTLTQESAAYIAEEYSRLRSQDSMSSDTARTSPVTARTLETLIRLATAHAKARMSKTVDLQDAEEAVELVQYAYFKKVLEKEKKRKKPSEDESDLEDEEEKSQEEDTEQTRKRRKTQAKDGESYDPYDFSEAEREMPQVHTPKTDDSQEKTDESQETQESQKVELSESRLKAFKAALLEVFQEAHAQSVGMIHLTESINRNKEEPFSSEEIQASLSRMQDDNQVMVSEGIVFLI
B2: CLTA (protein, UniProt P08081 1-248)
chain: MAELDPFGAPAGAPGGPALGNGVAGAGEEDPAAAFLAQQESEIAGIENDEAFAILDGGAPGPQAHGEPPGGPDAVDGVMNGEYYQESNGPTDSYAAISEVDRLQSEPESIRKWREEQTERLEALDANSRKQEAEWKEKAVKELEEWYARQDEQLQKTKASNRVADEAFYKQPFADVIGYVTNINHPCYSLEQAAEEAFVNDIDESSPGTEWERVARLCDFNPKSSKQAKDVSRMRSVLISLKQAPLVH
B3: CLTB (protein, UniProt P08082 1-229)
chain: MAEDFGFFSSSESGAPEAAEEDPAAAFLAQQESEIAGIENDSGFGAPAASQVASAQPGLASGGGSEDMGTTVNGDVFQEANGPADGYAAIAQADRLTQEPESIRKWREEQKKRLQELDAASKVTEQEWREKAKKDLEEWNQRQSEQVEKNKINNRIADKAFYQQPDADTIGYVASEEAFVKESKEETPGTEWEKVAQLCDFNPKSSKQCKDVSRLRSVLMSLKQTPLSR
B4: PICALM (protein, UniProt O55012 1-640)
chain: MSGQSLTDRITAAQHSVTGSAVSKTVCKATTHEIMGPKKKHLDYLIQCTNEMNVNIPQLADSLFERTTNSSWVVVFKSLITTHHLMVYGNERFIQYLASRNTLFNLSNFLDKSGLQGYDMSTFIRRYSRYLNEKAVSYRQVAFDFTKVKRGADGVMRTMNTEKLLKTVPIIQNQMDALLDFNVNSNELTNGVINAAFMLLFKDAIRLFAAYNEGIINLLEKYFDMKKNQCKEGLDIYKKFLTRMTRISEFLKVAEQVGIDRGDIPDLSQAPSSLLDALEQHLASLEGKKIKDSTAASRATTLSNAVSSLASTGLSLTKVDEREKQAALEEEQARLKALKEQRLKELAKKPHTSLTTAASPVSTSAGGIMTAPAIDIFSTPSSSNSTSKLPNDLLDLQQPTFHPSVHAMSAAPQVASTWGDAVDDAIPSLNPFLTKSSGDVHLPISSDVSTFTTRTPTHEMFVGFSPSPVTQPHPSAGLNVDFESVFGNKSTNVAVDSGGGLLKPTVASQNQSLPVAKLPPNKLVSDDLDSSLANLVGNLGIGNGTTKNDVSCSQPGEKKLTGGSNWQPKVAPTTAWSAATMAPPVMAYPATTPTGMIGYGIPPQMGSVPVMTQPTLIYSQPVMRPPNPFGPVPGAQIQFM
B5: PSMC2 (protein, UniProt Q63347 1-433)
chain: MPDYLGADQRKTKEDEKDDKPIRALDEGDIALLKTYGQSTYSRQIKQVEDDIQQLLKKINELTGIKESDTGLAPPALWDLAADKQTLQSEQPLQVARCTKIINADSEDPKYIINVKQFAKFVVDLSDQVAPTDIEEGMRVGVDRNKYQIHIPLPPKIDPTVTMMQVEEKPDVTYSDVGGCKEQIEKLREVVETPLLHPERFVNLGIEPPKGVLLFGPPGTGKTLCARAVANRTDACFIPVIGSELVQKYVGEGARMVRELFEMARTKKACLIFFDEIDAIGGARFDDGAGGDNEVQRTMLELINQLDGFDPRGNIKVLMATNRPDTLDPALMRPGRLDRKIEFSLPDLEGRTHIFKIHARSMSVERDIRFELLARLCPNSTGAEIRSVCTEAGMFAIRARRKIATEKDFLEAVNKVIKSYAKFSATPRYMTYN
B6: CAND1 (protein, UniProt P97536 1-1230)
chain: MASASYHISNLLEKMTSSDKDFRFMATNDLMTELQKDSIKLDDDSERKVVKMILKLLEDKNGEVQNLAVKCLGPLVSKVKEYQVETIVDTLCTNMLSDKEQLRDISSIGLKTVIGELPPASSGSALAANVCKKITGRLTSAIAKQEDVSVQLEALDIMADMLSRQGGLLVNFHPSILTCLLPQLTSPRLAVRKRTIIALGHLVMSCGNIVFVDLIEHLLSELSKNDSMSTTRTYIQCIAAISRQAGHRIGEYLEKIIPLVVKFCNVDDDELREYCIQAFESFVRRCPKEVYPHVSTIINICLKYLTYDPNYNYDDEDEDENAMDADGGDDDDQGSDDEYSDDDDMSWKVRRAAAKCLDAVVSTRHEMLPEFYKTVSPALISRFKEREENVKADVFHAYLSLLKQTRPVQSWLCDPDAMEQGETPLTMLQSQVPNIVKALHKQMKEKSVKTRQCCFNMLTELVNVLPGALTQHIPVLVPGIIFSLNDKSSSSNLKIDALSCLYVILCNHSPQVFHPHVQALVPPVVACVGDPFYKITSEALLVTQQLVKVIRPLDQPSSFDATPYIKDLFTCTIKRLKAADIDQEVKERAISCMGQIICNLGDNLGPDLSNTLQIFLERLKNEITRLTTVKALTLIAGSPLKIDLRPVLGEGVPILASFLRKNQRALKLGTLSALDILIKNYSDSLTAAMIDAVLDELPPLISESDMHVSQMAISFLTTLAKVYPSSLSKISGSILNELIGLVRSPLLQGGALSAMLDFFQALVVTGTNNLGYMDLLRMLTGPVYSQSTALTHKQSYYSIAKCVAALTRACPKEGPAVVGQFIQDVKNSRSTDSIRLLALLSLGEVGHHIDLSGQLELKSVILEAFSSPSEEVKSAASYALGSISVGNLPEYLPFVLQEITSQPKRQYLLLHSLKEIISSASVVGLKPYVENIWALLLKHCECAEEGTRNVVAECLGKLTLIDPETLLPRLKGYLISGSSYARSSVVTAVKFTISDHPQPIDPLLKNCIGDFLKTLEDPDLNVRRVALVTFNSAAHNKPSLIRDLLDSVLPHLYNETKVRKELIREVEMGPFKHTVDDGLDIRKAAFECMYTLLDSCLDRLDIFEFLNHVEDGLKDHYDIKMLTFLMLVRLSTLCPSAVLQRLDRLVEPLRATCTTKVKANSVKQEFEKQDELKRSAMRAVAALLTIPEAEKSPLMSEFQSQISSNPELAAIFESIQKDSSSTNLESMDTS
B7: DSTN (protein, UniProt Q7M0E3 1-165)
chain: MASGVQVADEVCRIFYDMKVRKCSTPEEIKKRKKAVIFCLSADKKCIVVEEGKEILVGDVGVTITDPFKHFVGMLPEKDCRYALYDASFETKESRKEELMFFLWAPEQAPLKSKMIYASSKDAIKKKFPGIKHEYQANGPEDLNRTSIAEKLGGSLIVAFEGSPV
B8: PSMD10 (protein, UniProt Q9Z2X3 1-231)
chain: MEGCVSNLMVCNLAYNGKLDELKESILADKSLATRTDQDSRTALHWACSAGHTEIVEFLLQLGVPVNEKDDAGWSPLHIAASAGRDEIVKALLIKGAQVNAVNQNGCTALHYAASKNRHEIAVMLLEGGANPDAKNHYDATAMHRAAAKGNLKMVHILLFYKASTNIQDTEGNTPLHLACDEERVEEAKLLVTQGASIYIENKEEKTPLQVAKGGLGLILKRIAESEEASM
B9: PSMD13 (protein, UniProt B0BN93 1-376)
chain: MKDVPAFLQQSQSSGPGQAAVWHRLEELYTKKLWHQLTLQVLDFVQDPCFAQGDGLIKLYENFISEFEHRVNPLSLVEIILHVVRQMTDPNVALTFLEKTREKVKSSDEAVILCKTAIGALKLNIGDLQATKETIEDVEEMLNNLPGVTSVHSRFYDLSSKYYQTIGNHASYYKDALRFLGCVDIKDLPVSEQQERAFTLGLAGLLGEGVFNFGELLMHPVLESLRNTDRQWLIDTLYAFNSGDVDRFQTLKSAWGQQPDLAANEAQLLRKIQLLCLMEMTFTRPANHRQLTFEEIAKSAKITVNKVELLVMKALSVGLVRGSIDEVDKRVHMTWVQPRVLDLQQIKGMKDRLELWCTDVKSMELLVEHQAQDILT
B10: PSMD9 (protein, UniProt Q9WTV5 1-222)
chain: MSSEEVRHRAESSEARAAAVSDIQELMRRKEEIEAQIKANYDVLESQKGIGMNEPLVDCEGYPRADVDLYQVRTARHNIICLQNDHKALMKQVEEALHQLHARDKEKQARDMAEAREEAMNRRLASDSPALPKAFARVNSISPGSPASIAGLQVDDEIVEFGSVNTQNFQSLQNVGTVVQHSEGKPLNVMVIRRGEKHQLRLTPTRWAGKGLLGCNITPLQR
B11: ADRM1 (protein, UniProt Q9JMB5 1-407)
chain: MTTSGALFPSLVPGSRGSSTKYLVEFRAGKMSLKGTTVTPDKRKGLVYIQQTDDSLIHFCWKDRTSGTVEDDLIIFPDDCEFKRVPQCPSGRVYVLKFKAGSKRLFFWMQEPKTDQDEEHCRKVNECLNNPPMPGTLGASGSSGHELSALGGEGGLQSLLGNMSHSQLMQLIGPAGLGGLGGLGALTGPGLASLLGSSGPPASSSSSSSRSQSAAVTPSSTTSSARATPAPSAPAAASATSPSPAPSSGNGTSTAASPTQPIQLSDLQSILATMNVPAGPGGSQQVDLASVLTPEIMAPILANADVQERLLPYLPSGESLPQTAEEIQNTLTSPQFQQALGMFSAALASGQLGPLMCQFGLPAEAVEAANKGDVEAFAKAMQNNAKSDPKEGDTKDKKDEEEDMSLD
B12: MCM6 (protein, UniProt Q62724 1-507)
chain: LRDEEQTAESIKNQMTVKEWEKVFEMSQDQNLYHNLCTSLFPTIHGNDEVKRGVLLMLFGGVPKTTGEGTSLRGDINVCIVGDPSTAKSQFLKHVDEFSPRAVYTSGKASSASGLTAAVVRDEESHEFVIEAGALMLADNGVCCIDEFDKMDMRDQVAIHEAMEQQTISITKAGVKATLNARTSILAAANPVSGHYDRSKSLKQNINLSAPIMSRFDLFFILVDECNEVTDYAIARRIVDLHSRIEESIDRVYSLDDIRRYLLFARQFKPKISKESEDFIVEQYKRLRQRDGSGITKSSWRITVRQLESMIRLSESMARMHCCDEVQPKHVKEAFRLLNKSIIRVETPDVNLDQEEEIQMETDEGPGGINGHADSPAPVNGFNGSGEDASQETVPKPSLRLAFAEYCRISNLIVLHLRKMEEEEDESALKRSELVNWYLKEIESEIDSEEELINKKRIIEKVVHRLTHYDHVLIELTQAGLKGSSEGSESYEEDPYLVVNPNYLLED

target: Huntingtin-interacting protein 1 (rat) (rat (endogenous in rat FLS)); experiment: affinity purification with mass spectrometry; rabbit anti-rat-HIP1 antibody (20 μg per sample) on Dynabeads M-270 Epoxy; total lysates of rat FLS (one DA and one R6 cell line, each in triplicate), starved 24 h, then PDGFβ 100 ng/mL 30 min; lysis in water with protease and phosphatase inhibitors by three freeze-thaw cycles; elution with 8 M urea, LysC and trypsin, nano-LC-MS/MS, label-free quantitation

Row | Binder | binding
1 | B1 | binds
2 | B2 | binds
3 | B3 | binds
4 | B4 | binds
5 | B5 | binds
6 | B6 | binds
7 | B7 | binds
8 | B8 | binds
9 | B9 | binds
10 | B10 | binds
11 | B11 | binds
12 | B12 | binds
